Results taken from the supplement of paper PMC6411743.
± gives the standard deviation of the averaged measurements. Only a part is listed here, and it is no random draw. Most values lie at the level of the controls, where differences are scatter.

Protein sequences, listed by entry. Tags and fused reporters are not part of them. Lines headed by an entry give the natural chain unless they say otherwise; changes in a name come on top.
UniProt Q9NZ01: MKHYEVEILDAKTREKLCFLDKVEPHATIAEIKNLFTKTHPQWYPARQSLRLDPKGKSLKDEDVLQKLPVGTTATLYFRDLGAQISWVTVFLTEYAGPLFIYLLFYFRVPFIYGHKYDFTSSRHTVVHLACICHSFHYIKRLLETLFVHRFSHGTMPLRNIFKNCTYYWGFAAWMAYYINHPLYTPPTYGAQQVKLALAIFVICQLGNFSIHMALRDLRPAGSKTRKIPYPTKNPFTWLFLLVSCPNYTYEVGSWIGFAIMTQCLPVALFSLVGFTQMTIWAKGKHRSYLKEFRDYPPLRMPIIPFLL
UniProt Q9NY12: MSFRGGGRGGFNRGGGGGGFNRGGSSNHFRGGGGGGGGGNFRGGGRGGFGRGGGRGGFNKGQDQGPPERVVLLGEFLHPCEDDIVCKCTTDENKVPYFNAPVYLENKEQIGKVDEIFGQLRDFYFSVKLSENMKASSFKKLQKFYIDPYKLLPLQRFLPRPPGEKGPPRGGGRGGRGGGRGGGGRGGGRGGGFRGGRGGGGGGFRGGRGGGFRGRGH
UniProt Q9NRK6: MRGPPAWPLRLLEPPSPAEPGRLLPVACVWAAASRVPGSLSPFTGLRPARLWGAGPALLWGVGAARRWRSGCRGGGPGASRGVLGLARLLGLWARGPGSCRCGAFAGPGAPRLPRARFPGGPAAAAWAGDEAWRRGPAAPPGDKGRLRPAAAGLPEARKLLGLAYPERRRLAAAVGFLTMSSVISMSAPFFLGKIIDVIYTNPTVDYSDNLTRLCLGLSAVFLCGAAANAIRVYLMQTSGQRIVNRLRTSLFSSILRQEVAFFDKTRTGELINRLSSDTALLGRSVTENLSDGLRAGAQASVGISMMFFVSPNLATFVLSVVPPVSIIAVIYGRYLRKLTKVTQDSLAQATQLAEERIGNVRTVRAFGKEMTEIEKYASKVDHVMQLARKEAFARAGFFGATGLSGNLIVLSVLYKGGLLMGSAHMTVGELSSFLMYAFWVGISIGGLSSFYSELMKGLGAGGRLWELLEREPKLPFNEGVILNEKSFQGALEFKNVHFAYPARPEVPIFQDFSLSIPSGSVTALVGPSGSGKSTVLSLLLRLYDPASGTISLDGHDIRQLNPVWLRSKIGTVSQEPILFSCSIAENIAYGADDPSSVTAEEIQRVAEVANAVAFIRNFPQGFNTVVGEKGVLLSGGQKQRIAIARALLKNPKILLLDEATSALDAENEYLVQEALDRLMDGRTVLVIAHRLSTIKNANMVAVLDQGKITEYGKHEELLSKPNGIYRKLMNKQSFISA
UniProt Q9NYR9: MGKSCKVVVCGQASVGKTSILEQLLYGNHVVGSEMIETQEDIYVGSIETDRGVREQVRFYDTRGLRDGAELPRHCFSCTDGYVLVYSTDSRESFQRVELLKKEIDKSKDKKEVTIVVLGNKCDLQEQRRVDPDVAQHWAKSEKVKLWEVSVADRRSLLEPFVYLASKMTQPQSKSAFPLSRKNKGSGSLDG
UniProt Q9P000, whole entry: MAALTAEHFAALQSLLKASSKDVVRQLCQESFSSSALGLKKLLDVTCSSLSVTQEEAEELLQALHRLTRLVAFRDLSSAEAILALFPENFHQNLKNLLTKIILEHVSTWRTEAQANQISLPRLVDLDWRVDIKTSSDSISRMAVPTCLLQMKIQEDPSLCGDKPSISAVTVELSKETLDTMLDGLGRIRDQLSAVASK
UniProt Q9UBG0: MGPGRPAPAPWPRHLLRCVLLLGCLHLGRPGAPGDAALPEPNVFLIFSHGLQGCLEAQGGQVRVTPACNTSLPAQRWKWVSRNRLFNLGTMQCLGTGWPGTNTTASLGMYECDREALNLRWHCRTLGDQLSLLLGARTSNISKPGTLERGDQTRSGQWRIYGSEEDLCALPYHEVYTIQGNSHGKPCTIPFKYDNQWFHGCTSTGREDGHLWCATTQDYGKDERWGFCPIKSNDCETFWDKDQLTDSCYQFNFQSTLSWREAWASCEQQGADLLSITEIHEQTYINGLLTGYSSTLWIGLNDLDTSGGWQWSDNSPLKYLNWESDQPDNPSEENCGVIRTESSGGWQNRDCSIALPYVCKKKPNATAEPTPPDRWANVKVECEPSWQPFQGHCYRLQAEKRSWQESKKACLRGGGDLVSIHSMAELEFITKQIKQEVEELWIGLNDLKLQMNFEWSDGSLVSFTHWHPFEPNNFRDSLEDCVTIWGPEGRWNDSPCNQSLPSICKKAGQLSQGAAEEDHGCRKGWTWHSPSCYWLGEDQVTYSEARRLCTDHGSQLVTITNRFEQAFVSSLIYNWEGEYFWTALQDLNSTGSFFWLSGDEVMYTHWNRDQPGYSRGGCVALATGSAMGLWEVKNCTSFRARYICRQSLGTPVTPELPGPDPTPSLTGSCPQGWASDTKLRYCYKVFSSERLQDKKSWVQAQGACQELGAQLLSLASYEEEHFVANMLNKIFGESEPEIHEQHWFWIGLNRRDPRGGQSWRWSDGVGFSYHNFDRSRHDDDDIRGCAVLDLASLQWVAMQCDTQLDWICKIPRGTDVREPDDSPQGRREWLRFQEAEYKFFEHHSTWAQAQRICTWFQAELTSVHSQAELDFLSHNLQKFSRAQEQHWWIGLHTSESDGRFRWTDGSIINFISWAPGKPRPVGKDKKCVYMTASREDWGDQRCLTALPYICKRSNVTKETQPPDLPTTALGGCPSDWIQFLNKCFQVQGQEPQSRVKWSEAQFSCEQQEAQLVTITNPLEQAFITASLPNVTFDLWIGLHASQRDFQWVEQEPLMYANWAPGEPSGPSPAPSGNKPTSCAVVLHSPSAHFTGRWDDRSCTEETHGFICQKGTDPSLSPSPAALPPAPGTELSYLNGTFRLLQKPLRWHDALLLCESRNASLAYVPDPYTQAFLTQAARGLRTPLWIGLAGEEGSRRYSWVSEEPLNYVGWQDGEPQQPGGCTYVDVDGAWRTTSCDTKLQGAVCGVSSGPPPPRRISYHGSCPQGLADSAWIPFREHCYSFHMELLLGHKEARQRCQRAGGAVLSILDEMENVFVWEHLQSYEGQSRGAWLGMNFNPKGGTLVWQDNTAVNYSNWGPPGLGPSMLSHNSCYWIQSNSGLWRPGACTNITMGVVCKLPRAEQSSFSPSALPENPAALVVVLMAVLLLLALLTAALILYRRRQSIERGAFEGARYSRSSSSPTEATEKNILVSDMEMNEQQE
UniProt Q9NTX5: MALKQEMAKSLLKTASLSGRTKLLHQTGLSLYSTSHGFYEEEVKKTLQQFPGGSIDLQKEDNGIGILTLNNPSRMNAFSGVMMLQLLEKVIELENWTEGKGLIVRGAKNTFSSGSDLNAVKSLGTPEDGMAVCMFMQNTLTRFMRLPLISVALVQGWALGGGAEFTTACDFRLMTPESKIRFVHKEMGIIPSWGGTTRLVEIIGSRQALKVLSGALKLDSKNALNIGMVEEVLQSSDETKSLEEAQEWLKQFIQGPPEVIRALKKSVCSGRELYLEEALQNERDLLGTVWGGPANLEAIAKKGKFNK
UniProt Q9NUQ3: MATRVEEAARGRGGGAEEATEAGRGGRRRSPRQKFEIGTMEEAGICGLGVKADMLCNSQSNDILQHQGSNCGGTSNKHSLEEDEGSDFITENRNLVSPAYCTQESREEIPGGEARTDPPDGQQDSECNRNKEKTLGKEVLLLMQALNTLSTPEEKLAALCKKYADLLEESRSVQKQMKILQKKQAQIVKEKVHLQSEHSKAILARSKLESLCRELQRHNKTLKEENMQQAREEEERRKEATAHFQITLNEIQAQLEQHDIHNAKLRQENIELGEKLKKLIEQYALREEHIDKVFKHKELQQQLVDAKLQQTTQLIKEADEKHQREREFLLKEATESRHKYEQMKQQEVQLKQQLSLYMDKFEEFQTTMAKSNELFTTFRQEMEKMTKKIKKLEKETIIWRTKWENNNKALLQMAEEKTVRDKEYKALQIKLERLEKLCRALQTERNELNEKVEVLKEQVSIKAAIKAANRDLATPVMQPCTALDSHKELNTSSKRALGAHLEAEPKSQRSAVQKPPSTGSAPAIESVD
UniProt Q9NVM4: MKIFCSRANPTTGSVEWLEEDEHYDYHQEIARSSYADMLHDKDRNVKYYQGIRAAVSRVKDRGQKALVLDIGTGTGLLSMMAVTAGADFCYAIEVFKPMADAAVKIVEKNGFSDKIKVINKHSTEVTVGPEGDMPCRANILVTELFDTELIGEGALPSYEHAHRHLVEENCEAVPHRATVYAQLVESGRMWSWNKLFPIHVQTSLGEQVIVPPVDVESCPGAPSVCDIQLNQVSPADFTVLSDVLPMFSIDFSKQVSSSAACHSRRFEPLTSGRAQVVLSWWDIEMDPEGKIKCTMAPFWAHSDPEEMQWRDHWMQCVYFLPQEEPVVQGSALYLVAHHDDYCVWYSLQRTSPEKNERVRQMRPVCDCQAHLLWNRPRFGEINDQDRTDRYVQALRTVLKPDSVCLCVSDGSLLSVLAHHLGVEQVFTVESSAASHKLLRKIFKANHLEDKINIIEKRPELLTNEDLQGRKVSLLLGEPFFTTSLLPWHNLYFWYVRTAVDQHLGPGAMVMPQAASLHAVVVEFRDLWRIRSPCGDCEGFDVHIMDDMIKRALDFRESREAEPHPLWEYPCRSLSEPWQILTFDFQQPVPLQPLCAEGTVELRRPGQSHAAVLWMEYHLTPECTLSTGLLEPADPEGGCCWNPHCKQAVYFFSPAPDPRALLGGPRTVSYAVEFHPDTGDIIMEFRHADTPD
UniProt Q9NS91, whole entry: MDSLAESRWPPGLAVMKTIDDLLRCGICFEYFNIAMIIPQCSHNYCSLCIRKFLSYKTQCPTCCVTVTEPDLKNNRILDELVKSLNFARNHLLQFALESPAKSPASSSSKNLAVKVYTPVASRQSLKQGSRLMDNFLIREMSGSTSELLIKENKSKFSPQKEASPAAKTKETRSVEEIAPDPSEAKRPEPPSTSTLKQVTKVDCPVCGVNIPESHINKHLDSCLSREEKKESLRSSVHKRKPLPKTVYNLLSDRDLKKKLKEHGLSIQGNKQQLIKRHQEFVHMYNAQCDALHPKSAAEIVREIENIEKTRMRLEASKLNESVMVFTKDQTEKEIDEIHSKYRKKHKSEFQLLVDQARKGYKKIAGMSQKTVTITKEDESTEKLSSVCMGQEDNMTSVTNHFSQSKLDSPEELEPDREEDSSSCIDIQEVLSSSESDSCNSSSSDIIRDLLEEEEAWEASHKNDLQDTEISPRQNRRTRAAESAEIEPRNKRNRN
UniProt Q9NX14, whole entry: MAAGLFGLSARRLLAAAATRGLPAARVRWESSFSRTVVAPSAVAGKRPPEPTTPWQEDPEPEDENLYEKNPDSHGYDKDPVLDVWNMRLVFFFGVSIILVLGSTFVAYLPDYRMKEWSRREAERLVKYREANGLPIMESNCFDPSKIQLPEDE
UniProt Q9NYY8: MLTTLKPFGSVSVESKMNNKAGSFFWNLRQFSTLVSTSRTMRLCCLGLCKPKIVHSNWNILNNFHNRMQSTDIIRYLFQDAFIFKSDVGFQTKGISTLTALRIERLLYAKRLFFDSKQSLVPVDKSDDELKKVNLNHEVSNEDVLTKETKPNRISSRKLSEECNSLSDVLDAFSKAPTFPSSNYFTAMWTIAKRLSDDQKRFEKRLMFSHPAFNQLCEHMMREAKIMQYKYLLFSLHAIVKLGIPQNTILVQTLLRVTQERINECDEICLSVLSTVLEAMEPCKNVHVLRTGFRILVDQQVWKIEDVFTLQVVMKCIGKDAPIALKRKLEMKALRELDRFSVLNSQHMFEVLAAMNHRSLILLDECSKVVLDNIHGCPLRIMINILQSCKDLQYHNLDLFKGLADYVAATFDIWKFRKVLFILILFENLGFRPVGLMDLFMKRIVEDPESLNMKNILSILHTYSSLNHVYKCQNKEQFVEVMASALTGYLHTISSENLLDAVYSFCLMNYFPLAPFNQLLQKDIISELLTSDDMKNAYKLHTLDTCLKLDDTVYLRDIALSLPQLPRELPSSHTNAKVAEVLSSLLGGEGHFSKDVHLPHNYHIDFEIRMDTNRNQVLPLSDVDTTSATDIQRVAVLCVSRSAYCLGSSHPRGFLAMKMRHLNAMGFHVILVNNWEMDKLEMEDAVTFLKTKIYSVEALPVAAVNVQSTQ
UniProt Q9UBE0: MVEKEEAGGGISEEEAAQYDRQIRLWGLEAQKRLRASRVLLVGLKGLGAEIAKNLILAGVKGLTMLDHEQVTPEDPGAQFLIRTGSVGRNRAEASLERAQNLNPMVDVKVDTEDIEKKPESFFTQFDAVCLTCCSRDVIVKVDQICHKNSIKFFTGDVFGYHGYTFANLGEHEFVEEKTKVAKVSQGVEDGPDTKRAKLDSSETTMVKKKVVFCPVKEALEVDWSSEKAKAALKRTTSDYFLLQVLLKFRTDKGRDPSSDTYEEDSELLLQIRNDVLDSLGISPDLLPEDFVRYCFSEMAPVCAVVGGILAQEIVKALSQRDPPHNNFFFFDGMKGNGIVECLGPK
UniProt Q9NX04: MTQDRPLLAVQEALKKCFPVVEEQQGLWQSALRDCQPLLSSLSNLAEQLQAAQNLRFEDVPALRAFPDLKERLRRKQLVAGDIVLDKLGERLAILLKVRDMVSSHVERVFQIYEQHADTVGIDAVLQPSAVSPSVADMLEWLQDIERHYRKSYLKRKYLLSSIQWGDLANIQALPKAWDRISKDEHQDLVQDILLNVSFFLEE

Compound: Nc1ncnc2c1ncn2[C@@H]1O[C@H](COP(=O)(O)OP(=O)(O)NP(=O)(O)O)[C@@H](O)[C@H]1O [adenylyl imidodiphosphate]
Experiment: NP40-soluble protein abundance relative to vehicle (solubility fold change) (ratio); higher = more soluble protein in presence of AMP-PNP
In short: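 Jurkat crude lysate (Dounce-homogenised) was treated with eight concentrations from 0.1 to 10 mM for 10 min at room temperature, then 3 min at 37 °C. It was solubilised with 0.8% NP40 and benzonase (60 min, 4 °C) and ultracentrifuged, and the supernatant was TMT-labelled for LC-MS/MS. Intensities were vsn-normalised, and the value is the fold change against the NP40-processed vehicle per replicate, from three independent experiments.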

Target	NP40-soluble protein abundance (concentration: 0.1mM)	NP40-soluble protein abundance (concentration: 0.5mM)
UniProt Q9NQS7 and related entries	1.0078 ± 0.0008	1.07 ± 0.1
NHP2 (UniProt Q9NX24)	0.986 ± 0.065	0.991 ± 0.034
SACS (UniProt Q9NZJ4)	0.997 ± 0.053	0.957 ± 0.11
UniProt Q9NZ01	1.05 ± 0.054	1.02 ± 0.12
INTS10 (UniProt Q9NVR2)	0.999 ± 0.028	0.988 ± 0.019
ASF1B (UniProt Q9NVP2)	0.975 ± 0.023	0.977 ± 0.084
UniProt Q9NY12 and related entries	1.06 ± 0.052	1 ± 0.059
ABCB10 (UniProt Q9NRK6)	1.03 ± 0.047	0.973 ± 0.082
PIH1D1 (UniProt Q9NWS0)	0.997 ± 0.026	0.961 ± 0.023
UniProt Q9NV88 and related entries	0.996 ± 0.043	1.01 ± 0.028
UniProt Q9NVX0 and related entries	1.01 ± 0.039	1.01 ± 0.055
KLHL11 (UniProt Q9NVR0)	1.02 ± 0.046	0.976 ± 0.056
UniProt Q9P275 and related entries	1.02 ± 0.03	1.04 ± 0.05
UniProt Q9NZJ7 and related entries	0.982 ± 0.053	0.958 ± 0.055
UniProt Q9NW68 and related entries	0.972 ± 0.033	1.01 ± 0.032
UniProt Q9NSI2 and related entries	0.979 ± 0.04	1.02 ± 0.05
POLE3 (UniProt Q9NRF9)	1.03 ± 0.089	1.04 ± 0.041
CHST12 (UniProt Q9NRB3)	0.991 ± 0.016	1.01 ± 0.0081
UniProt Q9NYR9 and related entries	1.03 ± 0.033	1.02 ± 0.016
UniProt Q9NZN5-2|Q9NZN5	0.9918 ± 0.0028	0.966 ± 0.038

Target	NP40-soluble protein abundance (concentration: 0.1mM)	NP40-soluble protein abundance (concentration: 0.5mM)
COMMD9 (UniProt Q9P000)	0.999 ± 0.02	1.02 ± 0.024
UniProt Q9NRX1 and related entries	0.995 ± 0.021	1.03 ± 0.057
UniProt Q9NQY0 and related entries	1.03 ± 0.014	1.04 ± 0.054
PAG1 (UniProt Q9NWQ8)	0.993 ± 0.037	1.03 ± 0.069
UniProt Q9NXR1 and related entries	1.05 ± 0.015	0.9848 ± 0.0044
MRC2 (UniProt Q9UBG0)	1.01 ± 0.0033	1.01 ± 0.028
DDX18 (UniProt Q9NVP1)	1.02 ± 0.039	1.01 ± 0.08
NIT2 (UniProt Q9NQR4)	0.998 ± 0.018	1.01 ± 0.018
UniProt Q9NTX5 and related entries	0.9691 ± 0.0036	0.965 ± 0.023
UniProt Q9NVK5 and related entries	0.96 ± 0.029	0.974 ± 0.032
PDP2 (UniProt Q9P2J9)	0.977 ± 0.042	0.998 ± 0.051
UniProt Q9NQC7 and related entries	0.992 ± 0.065	0.976 ± 0.031
UniProt Q9NT62 and related entries	1.036 ± 0.0083	1.02 ± 0.032
GNL3L (UniProt Q9NVN8)	1.03 ± 0.029	1.02 ± 0.06
CWC15 (UniProt Q9P013)	0.997 ± 0.054	1.07 ± 0.084
TOMM22 (UniProt Q9NS69)	1.02 ± 0.011	0.999 ± 0.011
TERF2IP (UniProt Q9NYB0)	0.974 ± 0.0055	1 ± 0.037
UniProt Q9NUQ3	0.995 ± 0.018	1.02 ± 0.052
UniProt Q9P0I2	0.97 ± 0.023	0.981 ± 0.01
RTN4 (UniProt Q9NQC3)	1.01 ± 0.03	1.03 ± 0.028

Part of the list above, field by field:
ABCB10 (UniProt Q9NRK6)
  NP40-soluble protein abundance (concentration: 0.1mM): 1.03 ± 0.047
  NP40-soluble protein abundance (concentration: 0.5mM): 0.973 ± 0.082
NIT2 (UniProt Q9NQR4)
  NP40-soluble protein abundance (concentration: 0.1mM): 0.998 ± 0.018
  NP40-soluble protein abundance (concentration: 0.5mM): 1.01 ± 0.018
PDP2 (UniProt Q9P2J9)
  NP40-soluble protein abundance (concentration: 0.1mM): 0.977 ± 0.042
  NP40-soluble protein abundance (concentration: 0.5mM): 0.998 ± 0.051

The listing continues.

Target	NP40-soluble protein abundance (concentration: 0.1mM)	NP40-soluble protein abundance (concentration: 0.5mM)
UniProt Q9NRY2	1.007 ± 0.0093	1.017 ± 0.0097
UniProt Q9NZ09 and related entries	0.973 ± 0.012	0.986 ± 0.044
UniProt Q9NVM4 and related entries	1.04 ± 0.021	0.982 ± 0.039
MIOS (UniProt Q9NXC5)	1.02 ± 0.023	0.992 ± 0.028
UniProt Q9P1Y5 and related entries	1.01 ± 0.028	0.967 ± 0.044
RAD18 (UniProt Q9NS91)	1.02 ± 0.026	1.01 ± 0.016
UniProt Q9NVH6 and related entries	0.994 ± 0.036	0.988 ± 0.016
PPP4R2 (UniProt Q9NY27)	1.04 ± 0.032	1.04 ± 0.04
UniProt Q9NQX3 and related entries	0.9932 ± 0.0089	0.989 ± 0.035
PHPT1 (UniProt Q9NRX4)	0.989 ± 0.04	1.01 ± 0.026
UniProt Q9NX14 and related entries	1.1 ± 0.036	1.03 ± 0.031
UniProt Q9NV70 and related entries	0.988 ± 0.036	0.973 ± 0.019
FASTKD2 (UniProt Q9NYY8)	1.01 ± 0.04	0.983 ± 0.046
TDP1 (UniProt Q9NUW8)	1.015 ± 0.0095	1.01 ± 0.016
UniProt Q9NUY8 and related entries	0.971 ± 0.012	0.9919 ± 0.0081
UniProt Q9NVI7-2	1.02 ± 0.079	1.08 ± 0.12
MBD2 (UniProt Q9UBB5)	0.996 ± 0.049	1.01 ± 0.035
SAE1 (UniProt Q9UBE0)	0.982 ± 0.024	1.03 ± 0.029
UniProt Q9NX04 and related entries	1.04 ± 0.026	1.02 ± 0.025
UniProt Q9NZQ3 and related entries	1.04 ± 0.032	1.02 ± 0.028
